Library screening results

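Viability assay of Plasmodium falciparum sporozoites; the read-out is not stated. The concentration is filed as 10 mM, unlikely as a test dose, so the dose is not known. The record gives no direction; compounds that gave an IC50 in retests scored well above the rest, so higher reads as lower viability. Strong results were mostly tested again. Size under these conditions: about 34,000 compounds, about 280 of them at 50% or above in at least one test.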

The filed quantity is “Percent Effect” (%). The record does not define 0% and 100%; most values in the screen are far below 50% and negative numbers occur (in some assays of this library far below -100). The compounds are a random part of those screened. Two or more numbers in one place are separate tests of the same structure; such repeats can differ widely.

Compound,effect
COCCn1nc(C(=O)N(C)Cc2cnn(C)c2)ccc1=O,-7.328
Cn1ncc2c(NC3CCC3)nc(-c3ccncc3)nc21,-7.353
Cc1nc(C(=O)N2CCN(S(=O)(=O)N(C)C)CC2)c(-c2ccccc2)s1,0.09083
O=C(O)C(F)(F)F.[H][C@@]12CCN(CC(=O)NC)C[C@]1([H])CN(C(=O)c1ccc(C)cc1)C2,8.158
CCOCc1ncn2c1CN(C(=O)Nc1cccc(C)c1)CC2,-9.696
CCn1ccnc1CN1CCCC1C(=O)Nc1nccs1 (centres undefined),-3.259
Cc1ncncc1C(=O)Nc1cnn(CC(=O)NC2CCCC2)c1,2.12
CNC(=O)c1ccc(C(=O)N2CCCC(n3nc(C)cc3C)C2)cn1 (centres undefined),-4.229
Cc1cc(CN2CCc3nn(C)c(=O)cc3C2)on1,-2.912
CC(=O)N1N=C(COc2ccc(Cl)cc2)OC1c1ccccc1 (centres undefined),-8.81
Cc1csc(CCNC(=O)NC(C)Cn2cccn2)n1 (centres undefined),7.202
CSCCc1ccc(NC(=O)NC(C)Cn2cncn2)cc1 (centres undefined),-1.643
CC(c1nc(C(C)(C)C)no1)N1CCN(c2ccc(C#N)cn2)CC1 (centres undefined),16.56
CCN(CC)c1ccc(NS(=O)(=O)c2cnn(C)c2)cn1,-13.94
CC(=O)N1Cc2ccnn2CC(C(=O)NCc2cccnc2)C1.O=C(O)C(F)(F)F (centres undefined),6.83
CC(C)[C@H](N)CC(=O)Nc1nc(-c2cnc(N3CCOCC3)nc2)cs1.Cl,3.472
O=C(c1ccccc1N1CCOCC1)N1CCCC1Cn1cccn1 (centres undefined),-16.5
CCS(=O)(=O)c1ccccc1N1CCC(NC(=O)C(C)C)CC1,5.666
Cc1cccc(N2CCN(CCC(=O)NCc3cnc(C)cn3)CC2)c1,-13.07
[H][C@]12CC[C@@H](N(C)c3cccnn3)[C@@]1([H])CN(Cc1ccccc1C(=O)O)C2,-1.9
CCN(Cc1ccc(Cl)s1)S(=O)(=O)CCOC,-9.677
Cc1cc(NC(=O)CN2CCC(N3CCNC3=O)CC2)on1,6.144
CN(C)c1ncc(-c2cccc(C(N)=O)c2)c(C2CNCCO2)n1.Cl (centres undefined),10.02
CC(C)COc1cncc(N2CCCN(CC(F)(F)F)CC2)n1,2.163
O=C(O)C(F)(F)F.O=C(O)C(F)(F)F.[H][C@@]12CN(CC)C[C@]1([H])[C@@H](OC)CCN2S(=O)(=O)c1cccnc1,1.804
O=C(C1CCC1)N1CCC2(CCCN2CC2CC2)CC1.O=C(O)C(F)(F)F,4.152
Cc1noc(C)c1S(=O)(=O)NC(=O)COc1cccc(C(C)C)c1,-2.182
CC(C)c1csc(C2CCCN(C(=O)c3ncccn3)C2)n1 (centres undefined),7.382
COc1ccccc1NC(=O)NC(C)c1nc[nH]n1 (centres undefined),-9.02 & -8.647
CC(C)c1cc(C(=O)N2CCC3(CCc4ccccc4C(=O)N3)C2)no1 (centres undefined),5.374
Cc1nc(CN(C)C2CCN(CCC(=O)N3CCOCC3)C2)no1 (centres undefined),12.74
O=C(NCCN1CCCC(CO)C1)c1ccc2sccc2c1 (centres undefined),-5.329
COc1ccc(C(C(=O)O)N(C)CCN2CCCC2)c(C)c1 (centres undefined),5.684
Cc1noc(C)c1CN1CCC2(CC1)C(c1ccccc1)CC(=O)N2C.O=C(O)C(F)(F)F (centres undefined),3.16
CC(=O)NC1CCCN(C(=O)c2ccc(Br)cc2O)C1 (centres undefined),-5.28
Cc1cccnc1CNc1cc(N2CCCC2CO)ncn1 (centres undefined),-13.57
N#Cc1ccc(N2CCCC(CO)(CCOc3ccccc3)C2)nc1 (centres undefined),1.667
O=C(CN1CCCC1COc1ccccc1)NCc1ccccn1 (centres undefined),11.01
O=C(c1cncnc1)N1CCCC(c2nccs2)C1 (centres undefined),2.784
c1coc(-c2noc(CN3CCc4cncnc4C3)n2)c1,5.746
Cc1nc(C)c(C(=O)N2CCCC(c3cnccn3)C2)s1 (centres undefined),12.52
COc1ccnc(N2CCN(C(=O)Cc3ccc(C#N)cc3)CC2)n1,-13.64
COCc1nc2cc(NCc3ncc[nH]3)ccc2o1,-15.04
CCOCC(=O)NC1(c2cccc(Br)c2)CC1,-234.2
Cc1cnn(CC2CN(Cc3nc(-c4ccccn4)no3)CCO2)c1 (centres undefined),8.757
CN(C)c1cc(CNC(=O)Nc2cccnc2N2CCCC2)ccn1,8.886
O=C(O)C(F)(F)F.O=C(O)C(F)(F)F.[H][C@@]12C[C@@H](OCc3cccnc3)CN1CCN(C(=O)c1ccc(F)cc1)C2,4.725
CS(=O)(=O)c1ccc(C(=O)N2CCCC(n3cccn3)C2)cc1 (centres undefined),-1.596
Fc1ccc(-c2nc(CNC3CCc4ncnn4C3)co2)cc1 (centres undefined),9.499
N#Cc1ccccc1C(=O)N1C[C@H](CO)C[C@H](CN2CCCC2)C1,-9.667
COc1ccc(C#N)cc1CSCCN1CCOCC1,-1.205
COc1ccc(CN2CCc3ncnc(OC(C)C)c3CC2)cc1.O=C(O)C(F)(F)F,4.654
CC(C)(C)NC(=O)C1CSCN1S(=O)(=O)c1ccccc1F (centres undefined),-0.5476
Cc1cnn(CC2CCCCN2C(=O)c2ccc3[nH]c(=O)[nH]c3c2)c1 (centres undefined),3.707
Cc1c(C(=O)NC(CN2CCCC2=O)c2ccccc2)cnn1C (centres undefined),-2.803
CC(CN1CCOCC1)n1cncc1-c1cnn(Cc2ccccc2)c1 (centres undefined),3.465
[H][C@@]12CN(c3ccc(C)nn3)C[C@@H](C(=O)NC3CCCC3)[C@]1([H])CCO2,-1.01
CCn1c(NCc2ccco2)nc2c(C)nn(C)c2c1=O,28.07
Cc1cc(F)ccc1CNCCn1cccn1,-0.6719
O=C(c1ccccn1)N1CCC(c2nccn2Cc2ccncc2)CC1,-9.737
Cc1ccc2c(n1)N(CCn1cccn1)CCN(C(=O)NC1CC1)C2.O=C(O)C(F)(F)F,-10.84
CC(C)NC(=O)CN1CCC(c2cccc(F)c2)C1 (centres undefined),10.23
Cn1cccc1C(=O)N1CCCCC1c1[nH]ncc1S(C)(=O)=O (centres undefined),17.91
O=C(CCOc1ccccc1)N1CCC(Nc2cccnn2)CC1,-9.372

8 of the entries, repeated:

For O=C(O)C(F)(F)F.[H][C@@]12CCN(CC(=O)NC)C[C@]1([H])CN(C(=O)c1ccc(C)cc1)C2 the result was 8.158%.
For Cc1cc(NC(=O)CN2CCC(N3CCNC3=O)CC2)on1 the result was 6.144%.
For CC(C)(C)NC(=O)C1CSCN1S(=O)(=O)c1ccccc1F (centres undefined) the result was -0.5476%.
For Cc1cc(CN2CCc3nn(C)c(=O)cc3C2)on1 the result was -2.912%.
For Cn1ncc2c(NC3CCC3)nc(-c3ccncc3)nc21 the result was -7.353%.
For COCCn1nc(C(=O)N(C)Cc2cnn(C)c2)ccc1=O the result was -7.328%.
For Cc1nc(CN(C)C2CCN(CCC(=O)N3CCOCC3)C2)no1 (centres undefined) the result was 12.74%.
For CCOCC(=O)NC1(c2cccc(Br)c2)CC1 the result was -234.2%.

Data taken from ChEMBL document CHEMBL3988442, “University of Dundee, Small-Polar-MMV Screening Library” (2021).